Data on two compounds can be found in publication PMC7179226, “Sulfonamide Inhibition Studies of the β-Class Carbonic Anhydrase CAS3 from the Filamentous Ascomycete Sordaria macrospora” (Molecules, 2020).

The target of assay [1] is T1, CAS3 (Sordaria macrospora, UniProt F7VU04).
T1 construct: gene SMAC_03179; primers imply N-terminus (M)MPVTNEE and C-terminus KTVRVV-LE-His6
Put plainly: stopped-flow CO2 hydration inhibition assay. It is filed as biochemical.

Assay [2] has as its target T2, CAS3 (Sordaria macrospora, UniProt F7VU04).
T2 construct: gene SMAC_03179; primers imply N-terminus (M)MPVTNEE and C-terminus KTVRVV-LE-His6
T2 sequence (F7VU04 1-174): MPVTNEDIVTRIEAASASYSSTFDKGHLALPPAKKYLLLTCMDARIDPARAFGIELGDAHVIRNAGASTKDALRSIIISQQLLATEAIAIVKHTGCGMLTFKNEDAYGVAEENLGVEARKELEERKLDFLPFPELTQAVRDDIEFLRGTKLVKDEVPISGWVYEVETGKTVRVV
Put plainly: biochemical. The settings on record: read-out: KI* (nM) / CAS3 ^c / β. How it is done:
An Applied Photophysics stopped-flow instrument was used for assaying the CA catalyzed CO2 hydration activity. The pH indicator used was bromothymol blue at a concentration of 0.2 mM, working at the absorbance maximum of 557 nm. The buffer used was 20 mM Tris (pH 8.3), and 20 mM Na2SO4 was added to this buffer for maintaining constant the ionic strength (sulfate is not inhibitory and has a KI > 200 mM against this enzyme; data not shown). The initial rates of the CA-catalyzed CO2 hydration were followed for a period of 10–100 s for each assay. The CO2 concentrations ranged from 1.7 to 17 mM for determining kinetic parameters of the reaction and the inhibition constants of tested inhibitors. For each measurement, six traces of the initial 5%–10% of the reaction were used for determining the initial velocity. Then, 10-fold decreasing dilution of inhibitor solutions, ranging from 1 nM and 100 µM were employed for determining the inhibition constants. Uncatalyzed rates were determined in the same manner and subtracted from total observed rates. Stock solutions of inhibitor (0.1 mM) were prepared in distilled deionized water, and dilutions up to 1 nM were done thereafter with the assay buffer. […] The inhibition constants measured by this method are in excellent agreement with the dissociation constants measured by native mass spectrometry.

In the case of `Nc1ccc(S(N)(=O)=O)cc1` [compound 1, sulfanilamide], at CAS3 [1], the Ki amounted to 90 ± 7.1 nM.

On to `Nc1ccc(S(N)(=O)=O)cc1` [compound 2], for which the Ki at CAS3 [2] was 84 ± 5.6 nM.
